Reference: the supplement of paper PMC12067093, “Discovery and optimisation of a covalent ligand for TRIM25 and its application to targeted protein ubiquitination” (Chemical Science, 2025)
This is one part of the list.

By UniProt entry, the sequences of proteins in these tests, tags left out. Where a name states a change or a piece, a line headed by the entry shows the natural chain unless it says otherwise.
UniProt Q96EB6: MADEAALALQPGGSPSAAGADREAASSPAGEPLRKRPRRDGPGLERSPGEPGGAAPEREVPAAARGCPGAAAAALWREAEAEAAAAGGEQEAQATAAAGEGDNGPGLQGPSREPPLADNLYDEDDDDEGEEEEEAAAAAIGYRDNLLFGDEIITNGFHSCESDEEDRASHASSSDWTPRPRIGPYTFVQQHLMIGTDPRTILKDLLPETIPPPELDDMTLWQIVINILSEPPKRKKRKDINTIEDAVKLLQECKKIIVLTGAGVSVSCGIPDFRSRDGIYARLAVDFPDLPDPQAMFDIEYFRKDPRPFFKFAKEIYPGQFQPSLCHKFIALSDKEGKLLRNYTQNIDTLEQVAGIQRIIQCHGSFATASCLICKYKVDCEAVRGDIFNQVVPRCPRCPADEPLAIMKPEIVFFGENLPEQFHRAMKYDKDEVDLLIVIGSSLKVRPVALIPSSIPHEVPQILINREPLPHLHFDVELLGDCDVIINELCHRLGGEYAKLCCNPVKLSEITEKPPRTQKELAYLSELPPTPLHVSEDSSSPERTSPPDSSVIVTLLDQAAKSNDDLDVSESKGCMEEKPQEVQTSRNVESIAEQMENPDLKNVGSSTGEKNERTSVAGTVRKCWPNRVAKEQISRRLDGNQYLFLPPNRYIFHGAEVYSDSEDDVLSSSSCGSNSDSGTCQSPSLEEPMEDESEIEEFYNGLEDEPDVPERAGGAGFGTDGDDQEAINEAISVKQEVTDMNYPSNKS
UniProt Q96BR1: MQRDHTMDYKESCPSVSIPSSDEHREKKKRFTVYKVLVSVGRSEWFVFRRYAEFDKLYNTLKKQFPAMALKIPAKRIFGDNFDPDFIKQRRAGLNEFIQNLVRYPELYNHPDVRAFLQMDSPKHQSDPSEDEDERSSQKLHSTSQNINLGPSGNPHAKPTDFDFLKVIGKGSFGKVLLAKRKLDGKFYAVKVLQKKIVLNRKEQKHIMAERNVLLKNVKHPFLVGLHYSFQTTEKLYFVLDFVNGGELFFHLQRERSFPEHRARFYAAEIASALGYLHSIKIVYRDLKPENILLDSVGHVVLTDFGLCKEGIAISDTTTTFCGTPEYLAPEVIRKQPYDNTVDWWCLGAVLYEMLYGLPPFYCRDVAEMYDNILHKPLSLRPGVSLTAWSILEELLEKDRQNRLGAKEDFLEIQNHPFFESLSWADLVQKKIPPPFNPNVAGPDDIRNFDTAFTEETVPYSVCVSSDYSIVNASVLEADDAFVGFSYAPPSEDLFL
UniProt P43007: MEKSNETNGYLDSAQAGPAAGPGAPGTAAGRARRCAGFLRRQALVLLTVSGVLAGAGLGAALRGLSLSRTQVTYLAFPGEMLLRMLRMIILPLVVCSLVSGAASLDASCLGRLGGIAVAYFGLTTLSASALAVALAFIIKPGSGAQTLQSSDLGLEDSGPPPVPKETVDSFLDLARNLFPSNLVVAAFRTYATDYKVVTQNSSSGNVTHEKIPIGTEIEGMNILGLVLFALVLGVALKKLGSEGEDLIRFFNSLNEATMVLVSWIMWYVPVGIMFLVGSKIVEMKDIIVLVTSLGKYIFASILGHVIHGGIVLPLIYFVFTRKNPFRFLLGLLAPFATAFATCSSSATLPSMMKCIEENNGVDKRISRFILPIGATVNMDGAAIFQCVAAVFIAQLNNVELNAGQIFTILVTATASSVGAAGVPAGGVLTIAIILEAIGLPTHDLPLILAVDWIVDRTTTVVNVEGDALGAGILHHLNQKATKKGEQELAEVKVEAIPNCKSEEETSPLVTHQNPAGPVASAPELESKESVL
UniProt O75533, whole entry, looked up: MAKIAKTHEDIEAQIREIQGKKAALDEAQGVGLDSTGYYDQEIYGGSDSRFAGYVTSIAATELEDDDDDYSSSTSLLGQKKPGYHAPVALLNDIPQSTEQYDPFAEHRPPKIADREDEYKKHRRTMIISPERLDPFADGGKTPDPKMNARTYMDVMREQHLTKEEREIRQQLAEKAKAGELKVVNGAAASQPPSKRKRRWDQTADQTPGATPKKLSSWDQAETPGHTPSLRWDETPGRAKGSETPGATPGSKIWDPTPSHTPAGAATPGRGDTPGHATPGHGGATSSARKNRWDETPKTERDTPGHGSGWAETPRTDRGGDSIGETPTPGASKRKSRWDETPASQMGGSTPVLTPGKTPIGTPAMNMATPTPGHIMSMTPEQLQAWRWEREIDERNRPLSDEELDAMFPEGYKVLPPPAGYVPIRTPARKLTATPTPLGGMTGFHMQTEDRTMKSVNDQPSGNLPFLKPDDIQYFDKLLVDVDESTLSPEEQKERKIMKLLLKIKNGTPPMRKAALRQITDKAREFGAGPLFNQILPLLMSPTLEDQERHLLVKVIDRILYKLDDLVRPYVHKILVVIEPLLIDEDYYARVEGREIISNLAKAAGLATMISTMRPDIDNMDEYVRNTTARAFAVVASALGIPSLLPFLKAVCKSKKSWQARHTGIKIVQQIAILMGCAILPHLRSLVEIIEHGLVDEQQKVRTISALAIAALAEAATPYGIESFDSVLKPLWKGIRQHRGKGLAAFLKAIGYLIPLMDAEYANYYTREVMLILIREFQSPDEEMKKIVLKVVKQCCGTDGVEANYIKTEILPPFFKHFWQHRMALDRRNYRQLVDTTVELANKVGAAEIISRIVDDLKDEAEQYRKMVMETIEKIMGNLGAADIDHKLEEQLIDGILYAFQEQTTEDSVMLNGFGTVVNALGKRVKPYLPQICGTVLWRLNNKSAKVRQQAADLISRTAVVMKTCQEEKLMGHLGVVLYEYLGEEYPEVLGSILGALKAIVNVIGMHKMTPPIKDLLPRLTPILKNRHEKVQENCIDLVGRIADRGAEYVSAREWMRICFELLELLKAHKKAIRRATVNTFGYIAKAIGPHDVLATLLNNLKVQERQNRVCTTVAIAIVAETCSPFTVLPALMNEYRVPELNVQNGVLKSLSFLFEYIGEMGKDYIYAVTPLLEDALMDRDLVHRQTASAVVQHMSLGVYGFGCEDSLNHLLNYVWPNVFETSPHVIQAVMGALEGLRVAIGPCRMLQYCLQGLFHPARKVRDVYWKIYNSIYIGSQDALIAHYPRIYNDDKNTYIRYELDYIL
UniProt Q16181: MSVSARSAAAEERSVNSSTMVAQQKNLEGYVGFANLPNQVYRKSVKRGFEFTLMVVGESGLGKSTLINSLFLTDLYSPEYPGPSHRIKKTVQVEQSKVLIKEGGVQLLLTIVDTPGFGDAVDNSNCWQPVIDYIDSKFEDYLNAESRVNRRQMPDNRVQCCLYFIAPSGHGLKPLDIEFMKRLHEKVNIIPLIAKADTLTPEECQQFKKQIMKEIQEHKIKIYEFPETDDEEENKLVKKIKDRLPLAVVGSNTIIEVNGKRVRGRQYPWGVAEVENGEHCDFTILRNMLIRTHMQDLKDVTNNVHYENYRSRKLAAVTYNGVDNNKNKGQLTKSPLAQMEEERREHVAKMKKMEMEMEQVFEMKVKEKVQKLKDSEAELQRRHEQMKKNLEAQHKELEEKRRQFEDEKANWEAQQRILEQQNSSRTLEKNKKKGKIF
UniProt P35237: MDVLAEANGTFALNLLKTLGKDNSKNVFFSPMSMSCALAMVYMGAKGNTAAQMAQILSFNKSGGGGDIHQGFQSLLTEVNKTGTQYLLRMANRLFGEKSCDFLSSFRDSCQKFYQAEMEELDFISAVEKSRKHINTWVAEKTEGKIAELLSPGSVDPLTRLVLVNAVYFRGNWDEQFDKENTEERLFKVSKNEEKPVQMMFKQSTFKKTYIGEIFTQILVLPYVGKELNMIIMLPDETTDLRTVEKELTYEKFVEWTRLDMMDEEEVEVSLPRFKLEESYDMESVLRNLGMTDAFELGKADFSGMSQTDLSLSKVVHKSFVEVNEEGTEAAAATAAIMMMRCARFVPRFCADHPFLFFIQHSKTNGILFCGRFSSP
UniProt Q9Y3B4: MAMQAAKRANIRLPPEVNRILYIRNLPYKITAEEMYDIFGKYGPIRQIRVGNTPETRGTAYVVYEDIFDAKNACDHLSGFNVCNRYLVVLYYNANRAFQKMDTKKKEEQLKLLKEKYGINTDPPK
UniProt Q9UPS6, whole entry, looked up: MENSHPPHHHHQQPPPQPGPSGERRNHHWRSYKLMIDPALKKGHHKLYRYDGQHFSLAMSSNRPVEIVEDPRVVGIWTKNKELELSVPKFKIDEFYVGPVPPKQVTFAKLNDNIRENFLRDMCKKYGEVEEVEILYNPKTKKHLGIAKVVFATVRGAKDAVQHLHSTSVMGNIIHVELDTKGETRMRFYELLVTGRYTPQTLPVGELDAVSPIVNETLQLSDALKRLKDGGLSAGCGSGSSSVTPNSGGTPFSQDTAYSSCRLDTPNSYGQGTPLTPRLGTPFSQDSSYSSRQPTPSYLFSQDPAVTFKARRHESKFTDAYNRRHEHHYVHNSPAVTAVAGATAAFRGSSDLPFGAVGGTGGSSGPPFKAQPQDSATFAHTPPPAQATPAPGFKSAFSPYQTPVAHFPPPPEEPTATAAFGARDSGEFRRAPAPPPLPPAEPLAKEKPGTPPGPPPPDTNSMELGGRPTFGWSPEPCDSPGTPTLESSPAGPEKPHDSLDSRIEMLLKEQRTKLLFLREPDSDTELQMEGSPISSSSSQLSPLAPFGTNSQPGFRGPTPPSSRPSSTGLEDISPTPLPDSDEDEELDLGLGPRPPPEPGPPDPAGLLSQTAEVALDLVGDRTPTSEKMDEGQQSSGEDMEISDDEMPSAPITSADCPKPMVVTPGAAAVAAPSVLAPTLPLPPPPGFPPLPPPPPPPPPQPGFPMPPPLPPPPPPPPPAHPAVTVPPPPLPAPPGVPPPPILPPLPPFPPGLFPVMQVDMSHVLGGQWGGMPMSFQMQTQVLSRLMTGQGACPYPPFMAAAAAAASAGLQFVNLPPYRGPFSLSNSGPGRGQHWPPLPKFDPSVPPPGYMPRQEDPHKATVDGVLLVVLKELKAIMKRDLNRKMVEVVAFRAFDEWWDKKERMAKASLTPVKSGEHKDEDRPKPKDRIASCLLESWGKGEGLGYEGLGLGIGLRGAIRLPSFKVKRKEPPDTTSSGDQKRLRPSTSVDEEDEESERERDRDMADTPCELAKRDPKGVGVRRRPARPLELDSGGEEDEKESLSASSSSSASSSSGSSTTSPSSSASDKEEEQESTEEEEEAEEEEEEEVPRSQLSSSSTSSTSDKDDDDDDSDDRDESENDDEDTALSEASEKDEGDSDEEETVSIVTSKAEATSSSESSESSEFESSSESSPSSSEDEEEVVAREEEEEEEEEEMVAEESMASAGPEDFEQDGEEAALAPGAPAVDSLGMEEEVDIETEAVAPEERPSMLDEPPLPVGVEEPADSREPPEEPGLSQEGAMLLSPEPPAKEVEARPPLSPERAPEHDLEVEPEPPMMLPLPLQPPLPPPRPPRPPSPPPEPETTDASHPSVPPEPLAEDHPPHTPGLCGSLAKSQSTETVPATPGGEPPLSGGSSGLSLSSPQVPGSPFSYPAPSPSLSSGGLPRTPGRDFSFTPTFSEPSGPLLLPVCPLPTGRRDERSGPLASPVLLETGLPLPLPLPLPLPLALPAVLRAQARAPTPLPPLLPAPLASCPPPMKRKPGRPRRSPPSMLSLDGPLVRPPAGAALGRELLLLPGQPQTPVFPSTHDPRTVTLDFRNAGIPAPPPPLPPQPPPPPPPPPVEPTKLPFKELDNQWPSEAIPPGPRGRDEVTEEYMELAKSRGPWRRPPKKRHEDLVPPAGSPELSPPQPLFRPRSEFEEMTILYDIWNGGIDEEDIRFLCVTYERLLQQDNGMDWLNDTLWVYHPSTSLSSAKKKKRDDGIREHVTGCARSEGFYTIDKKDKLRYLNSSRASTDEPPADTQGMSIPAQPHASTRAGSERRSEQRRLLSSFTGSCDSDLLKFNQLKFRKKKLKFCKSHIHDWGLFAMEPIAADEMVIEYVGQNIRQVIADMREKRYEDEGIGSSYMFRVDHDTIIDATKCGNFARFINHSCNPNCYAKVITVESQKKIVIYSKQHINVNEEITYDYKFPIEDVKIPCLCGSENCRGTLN
UniProt P34897: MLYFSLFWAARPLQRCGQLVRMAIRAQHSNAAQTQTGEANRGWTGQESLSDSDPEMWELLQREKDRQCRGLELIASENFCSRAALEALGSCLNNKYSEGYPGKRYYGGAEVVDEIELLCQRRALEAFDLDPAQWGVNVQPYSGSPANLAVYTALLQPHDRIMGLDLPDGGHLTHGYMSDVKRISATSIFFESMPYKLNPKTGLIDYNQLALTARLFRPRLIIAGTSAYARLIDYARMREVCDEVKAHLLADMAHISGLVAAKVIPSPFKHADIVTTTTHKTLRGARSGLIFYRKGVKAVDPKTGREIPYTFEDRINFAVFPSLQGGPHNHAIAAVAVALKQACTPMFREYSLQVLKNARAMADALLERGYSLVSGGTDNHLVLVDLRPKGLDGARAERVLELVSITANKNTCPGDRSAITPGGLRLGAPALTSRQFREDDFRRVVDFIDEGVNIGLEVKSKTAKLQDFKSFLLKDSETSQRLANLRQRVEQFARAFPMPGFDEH

Compound: CC1Cc2ccccc2N1C(=O)C1CCCN(C1)C(=O)CCl (mixture of isomers) [TRIM25 ligand 11 (diastereomer mixture)]
Test: probe-labelled cysteine peptide fold change vs DMSO (competition) (log2 fold change); higher = less target engagement (more negative = stronger competition)
Conditions: THP-1, incubation time: 4 h
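Note: competitive chemoproteomic profiling in live THP-1 cells with an iodoacetamide desthiobiotin (IA-DTB) probe, comparing probe-labelled peptide intensities in compound-treated cells against DMSO-treated controls.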

Row | Target | probe-labelled cysteine peptide fold change (10 µM) | probe-labelled cysteine peptide fold change (50 µM)
1 | SIRT1_Q96EB6_574_GCMEEKPQEVQTSR (UniProt Q96EB6) | -0.213 | -0.285
2 | SLC25A10_Q9UBX3_240_GEYQGVFHCAVETAK (UniProt Q9UBX3) | 0.0427 | 0.11
3 | SGK3_Q96BR1_13_ESCPSVSIPSSDEHREK (UniProt Q96BR1) | -0.11 | -0.175
4 | SLC1A4_P43007_500_VEAIPNCK (UniProt P43007) | 0.0381 | -0.0122
5 | SKAP2_O75563_185_DCCFEISAPDKR (UniProt O75563) | -0.0767 | 0.159
6 | SF3A3_Q12874_103_HPNEICVPMSVEFEELLK (UniProt Q12874) | 0.0836 | 0.209
7 | SIPA1_Q96FS4_307_LLEHVAPQLSPSCLR (UniProt Q96FS4) | 0.0452 | -0.356
8 | SF3B3_Q15393_289_GMIFVCSATHK (UniProt Q15393) | 0.255 | 0.0632
9 | SF3B1_O75533_1244_VAIGPCR (UniProt O75533) | -0.0327 | 0.264
10 | SGK3_Q96BR1_13_ESCPSVSIPSSDEHR (UniProt Q96BR1) | -0.131 | -0.191
11 | SEPT7_Q16181_204_ADTLTPEECQQFK (UniProt Q16181) | -0.00984 | 0.0459
12 | SIRPA_P78324_228_EDVHSQVICEVAHVTLQGDPLR (UniProt P78324) | -0.244 | 0.114
13 | SEPT5_Q99719_193_ADCLVPSEIR (UniProt Q99719) | -0.096 | -0.0753
14 | SIRT1_Q96EB6_371_IIQCHGSFATASCLICK (UniProt Q96EB6) | 0.0628 | -0.152
15 | SERPINB8_P50452_59_GSTAAQMSQALCLYK (UniProt P50452) | 0.0779 | -0.0697
16 | SERPINB6_P35237_36_NVFFSPMSMSCALAMVYMGAK (UniProt P35237) | -0.325 | -0.259
17 | SFMBT2_Q5VUG0_560_CVLVLK (UniProt Q5VUG0) | -0.203 | 0.0554
18 | SEPT11_Q9NVA2_150_IHACLYFIAPTGHSLK (UniProt Q9NVA2) | -0.152 | 0.021
19 | SERPINB6_P35237_350_FCADHPFLFFIQHSK (UniProt P35237) | -0.131 | -0.0851

Row | Target | probe-labelled cysteine peptide fold change (10 µM) | probe-labelled cysteine peptide fold change (50 µM)
20 | SLC25A20_O43772_283_AFPANAACFLGFEVAMK (UniProt O43772) | -0.155 | -0.204
21 | SKP1_P63208_62_KVIQWCTHHK (UniProt P63208) | -0.104 | 0.072
22 | SLC25A36_Q96CQ1_67_VVSPGPLHCLK (UniProt Q96CQ1) | 0.114 | 0.127
23 | SKP2_Q13309_327_NDCFQEFFQLNYLQHLSLSR (UniProt Q13309) | -0.129 | -0.282
24 | SIGLEC5_O15389_314_SAEEGGFTCR (UniProt O15389) | 0.0112 | 0.0993
25 | SF3B1_O75533_796_QCCGTDGVEANYIK (UniProt O75533) | 0.0337 | 0.044
26 | SHCBP1_Q8NEM2_500+510_GAGIEIYPGSQCTLSDNGIHHCK (UniProt Q8NEM2) | 0.135 | 0.0189
27 | SF3B6_Q9Y3B4_74_NACDHLSGFNVCNR (UniProt Q9Y3B4) | 0.0202 | -0.0488
28 | SHMT1_P34896_248_IADENGAYLMADMAHISGLVAAGVVPSPFEHCHVVTTTTHK (UniProt P34896) | -0.159 | -0.203
29 | SEPT3_Q9UH03_295_TPWGIIEVENLNHCEFALLR (UniProt Q9UH03) | -0.0379 | -0.18
30 | SHCBP1_Q8NEM2_254_LHYDILEDRVPSGLIVDYHNLLSQCEESYR (UniProt Q8NEM2) | 0.175 | 0.0706
31 | SETD1B_Q9UPS6_1912_FINHSCNPNCYAK (UniProt Q9UPS6) | -0.127 | 0.109
32 | SHMT2_P34897_241_MREVCDEVK (UniProt P34897) | -0.134 | -0.048
33 | SEPT7_Q16181_280_QYPWGVAEVENGEHCDFTILR (UniProt Q16181) | -0.0336 | 0.0042
34 | SGK3_Q96BR1_308_DLKPENILLDSVGHVVLTDFGLCK (UniProt Q96BR1) | 0.137 | -0.0915
35 | SIKE1_Q9BRV8_164_AVQVDDDQFCK (UniProt Q9BRV8) | 0.0279 | 0.0525
36 | SHC1_P29353_169_YMGCVEVLQSMR (UniProt P29353) | 0.0199 | 0.168
37 | SF3B6_Q9Y3B4_74+83_NACDHLSGFNVCNR (UniProt Q9Y3B4) | 0.228 | 0.0789
38 | SGO2_Q562F6_1041_HITSEADSDPGNPVELCK (UniProt Q562F6) | 0.061 | -0.0335

From entry 31 to 32, copied from above:
Row | Target | probe-labelled cysteine peptide fold change (10 µM) | probe-labelled cysteine peptide fold change (50 µM)
31 | SETD1B_Q9UPS6_1912_FINHSCNPNCYAK (UniProt Q9UPS6) | -0.127 | 0.109
32 | SHMT2_P34897_241_MREVCDEVK (UniProt P34897) | -0.134 | -0.048
